From PMC8339588
These are yes or no findings as the source states them, for the method shown. Binding seen in cells or lysates may run through a third protein. Sequences can lack the tags named with a protein.

Target: T1, TBC1D16 (pCMV-Flag-TBC1D16) (UniProt Q8TBP0)
T1 sequence: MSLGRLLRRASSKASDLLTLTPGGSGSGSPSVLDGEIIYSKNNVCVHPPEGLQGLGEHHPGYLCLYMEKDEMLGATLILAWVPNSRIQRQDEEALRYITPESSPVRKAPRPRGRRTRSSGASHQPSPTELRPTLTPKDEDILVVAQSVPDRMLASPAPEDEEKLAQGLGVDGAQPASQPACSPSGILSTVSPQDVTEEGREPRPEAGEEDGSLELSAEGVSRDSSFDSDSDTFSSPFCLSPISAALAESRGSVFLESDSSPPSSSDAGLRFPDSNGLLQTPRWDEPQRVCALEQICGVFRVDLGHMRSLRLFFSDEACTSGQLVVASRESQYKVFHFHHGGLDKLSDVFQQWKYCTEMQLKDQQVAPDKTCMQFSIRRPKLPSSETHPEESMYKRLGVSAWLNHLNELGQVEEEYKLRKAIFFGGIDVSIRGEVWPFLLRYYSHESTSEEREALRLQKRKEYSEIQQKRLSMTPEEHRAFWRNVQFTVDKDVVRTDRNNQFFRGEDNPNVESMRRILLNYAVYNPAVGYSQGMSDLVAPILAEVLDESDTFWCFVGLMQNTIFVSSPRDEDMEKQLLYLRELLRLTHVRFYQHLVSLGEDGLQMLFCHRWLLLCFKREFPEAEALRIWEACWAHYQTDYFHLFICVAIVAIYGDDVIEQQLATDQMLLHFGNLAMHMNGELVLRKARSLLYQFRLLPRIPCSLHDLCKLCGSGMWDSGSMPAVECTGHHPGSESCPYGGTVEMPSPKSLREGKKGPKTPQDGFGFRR
Assay: co-IP; HEK293T cells cotransfected with the two tagged plasmids (3 ug each) for 48 h; lysed in Nonidet P-40 buffer (150 mM NaCl, 1 mM EDTA, 1% NP-40); precipitated with IgG (control) or the indicated antibodies on Protein A/G Plus-Agarose; washed three times with 500 mM NaCl lysis buffer …

In the case of PFV Gag (pCMV-His-Gag), the binding was “no binding”.
